Active and inactive are the calls of the source. No cut-off for these calls is given here.
How the values were obtained:
[1] = biological target: Tumor necrosis factor (Homo sapiens) (UniProt P01375); test: Inhibition of TNFalpha (unknown origin)-induced ICAM-1 expression in human HT-29 cells at 10 uM preincubated with cells for 1 hr followed by TNFalpha induction of 3 hrs by Western blot analysis; format: cell-based
[2] = biological target: Tumor necrosis factor (Homo sapiens) (UniProt P01375); test: Inhibition of TNFalpha (unknown origin)-induced MCP-1 expression in human HT-29 cells at 10 uM preincubated with cells for 1 hr followed by TNFalpha induction of 3 hrs by Western blot analysis; format: cell-based
[3] = biological target: Tumor necrosis factor (Homo sapiens) (UniProt P01375); test: Inhibition of TNFalpha (unknown origin)-induced NFkappaB transcriptional activity in human HT-29 cells at 10 uM pretreated with cells for 1 hr followed by TNFalpha induction for 3 hrs by dual luciferase reporter gene assay; format: cell-based
[4] = biological target: Tumor necrosis factor (Homo sapiens) (UniProt P01375); test: Inhibition of TNFalpha (unknown origin)-induced adhesion of BCECF fluorescence-labeled human U937 cells to human HT-29 cells at 10 uM measured at 3 hrs post TNFalpha stimulation relative to control

The chains behind the UniProt entries cited, without tags or fusion partners.
UniProt P01375, whole entry: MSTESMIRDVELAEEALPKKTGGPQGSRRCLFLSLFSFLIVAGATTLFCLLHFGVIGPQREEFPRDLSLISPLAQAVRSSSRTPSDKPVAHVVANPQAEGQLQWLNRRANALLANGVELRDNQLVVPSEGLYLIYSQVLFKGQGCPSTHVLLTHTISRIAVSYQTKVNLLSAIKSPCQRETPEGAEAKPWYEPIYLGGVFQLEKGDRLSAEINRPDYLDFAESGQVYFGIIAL

## O=C1/C(=C/c2ccncc2)Cc2ccccc21
[1]
  inhibition: Active
[2]
  inhibition: Active
[3]
  inhibition: Active
[4]
  inhibition: 74.1%

— ChEMBL document CHEMBL4118274, “Synthesis and biological evaluation of pyridine-linked indanone derivatives: Potential agents for inflammatory bowel disease” (Bioorg Med Chem Lett, 2018)
